Consider 1 substance from article PMC5978872.

The experiment concerns the target T1, MPN domain of CSN5B fused to a YFP fragment for BiFC in tobacco leaves (Arabidopsis) (UniProt Q9FVU9).
T1 sequence: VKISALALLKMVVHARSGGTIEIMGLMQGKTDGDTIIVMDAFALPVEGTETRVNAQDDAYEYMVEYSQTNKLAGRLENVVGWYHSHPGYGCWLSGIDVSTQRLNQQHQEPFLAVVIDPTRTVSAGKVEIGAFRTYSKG
Nature of the experiment: split reporter; BiFC with cYFP and nYFP fusions transiently co-expressed in tobacco leaves; YFP seen by confocal laser scanning microscopy 48 h after infiltration.

These are yes or no findings as the source states them, for the method shown. In cells and extracts the contact can be indirect. A result given as binding can be weak or reduced; the word gives no strength. Tags and fused reporters may be left off the sequences shown.

Regarding “VTC1 fused to a YFP fragment for BiFC in tobacco leaves (Arabidopsis) (enzyme)”, the binding entry is on record as “binds”.
